# From PubChem BioAssay AID1347426 (Functional Genomics Laboratory (NCATS/FGL), 2020)
# Hit rate of the full screen: of about 31,000 sequences, about 1,400 (4.5%) were called active.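 Rule for the calls: active = median seed-adjusted z-score above 1 or below -1; inactive = the rest.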 The list shows a part of the results.
# Test: Novel Modifiers of Survival Motor Neuron (SMN) Protein: Gene Identification via Genome-wide siRNA Screen;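 note: luminescence tracks full-length SMN protein made from the SMN2 reporter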
# Details: HEK293T SMN2-luciferase reporter, siRNA knockdown, 72 h; actives lie on both sides
# Outline: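 Steps: spot 1 pmol siRNA, add Lipofectamine RNAiMax in serum-free DMEM, seed HEK293T SMN2–luciferase reporter cells; incubate 72 h at 37 °C; add ONE-Glo; normalize luminescence to control siRNA, log10, MAD. Candidates: |MAD| > 1.0.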
row,Sequence,median seed-adjusted z-score
1,CUCUAUACUUUUAACGAUUTT against TRIM60,inactive: -0.201
2,GAUUUGCACUAUCGGAAUATT against TRPM7,inactive: -0.575
3,UCCUGGAAAUCGUGACUAUTT against KCNQ2,inactive: 0.0368
4,GAACGAUGUUGGACUCAUATT against INSR,inactive: 0.172
5,GGUUUUUCAAGUACGAAAATT against RPS6KB1,active: 1.4
6,GGAACUGACAGAGUCCGUATT against BACH1,inactive: -0.404
7,GAACAUCAAUUGUUCCAUATT against HMGCL,inactive: 0.046
8,CGAAGAAGCGUAUGCGGAATT against PNKP,inactive: -0.0563
9,CAUCGAAUCCUUACCCGAATT against AASDHPPT,inactive: 0.64
10,AGAGAUCACCGAUUACAGATT against ISG20,inactive: 0.0209
11,GCAAUUUCCUAGACAAUGATT against SPOCK1,inactive: -0.596
12,GCAGGACAGCUAUCGCUUUTT against TBC1D1,inactive: -0.359
13,CCCAGGCUCGAAUCCCAUATT against PLD3,inactive: 0.066
14,GCAUGUGAUUGACAUCAAUTT against PCDHGA3,inactive: 0.27
15,UCACCGUGCUGAUUCGGAATT against CCKAR,inactive: 0.376
16,CAGCGAAAUUUCUUCAGUUTT against PPP4R2,inactive: 0.211
17,GGAAGACUAUAAAUCUAUATT against TTC1,inactive: 0.3
18,CAUCGAUACUGGUGAAGGATT against MYBPC3,inactive: 0.304
19,CCAUCCUUGCUAGAGAAAATT against SULT1C4,inactive: 0.00352
20,GGGUCGAAUUUCUUCUAGATT against ASNSD1,inactive: 0.437
21,CACUGAGGAUAAACCCUAUTT against ZNF20,inactive: -0.359
22,GGAUCACGAUGAAGACAAATT against CTSL3,active: 1.07
23,GGAAGGUGAUGUACGCCUUTT against DBNL,inactive: 0.398
24,AAUCCUCCUUCGUAUUAUATT against LITAF,inactive: 0.0771
25,GACUUUCAGUUCUUACGAUTT against CCNB3,inactive: 0
26,CCACAGAACCUGAAUCGCUTT against KRT84,inactive: -0.645
27,GGAUGAAAACUUCAAACGATT against OPRM1,inactive: -0.00476

row,Sequence,median seed-adjusted z-score
1,CGGAAACGCCAGACUUCUATT against SPINK1,inactive: 0.292
2,GCAUCGUGGACAUAUCUAUTT against MCM4,inactive: 0.0057
3,CAAUAUCAAAAAUGACUUUTT against SKP1,inactive: -0.0492
4,CCGUAACCAAGGCCCAGAATT against HIST1H2BO,inactive: 0.634
5,CCAAAUCGAUGACCGACAATT against GPR115,inactive: -0.189
6,GGACGGAGAUUACAUCAAUTT against PTPN7,inactive: -0.189
7,CAAUGAGCACUUGAAGAUUTT against TRIM65,inactive: -0.599
8,GGAGGGUUUUCACGAUGAATT against AP2B1,inactive: -0.214
9,GGAGCGUAUCUGUGAGAAATT against FASN,inactive: 0.282
10,GGAGAGAAGAUUACCAUGATT against SDCBP,inactive: 0.0325
11,AGUGGUCCCUUCACAGGAATT against GNRH2,active: 1.13
12,GAAUGUGACAAUACAUUUATT against ZNF431,inactive: 0.00537
13,GACUUUGCUUUGAUUCAUATT against PRPS1L1,inactive: 0
14,CCUUAUGAGCAACCAAUGATT against ZFAT,inactive: -0.183
15,GAAAGCGGCUUAUCGAACATT against CUX1,inactive: -0.527
16,GAUGGACAUUGAUAGCGAUTT against DTX3L,inactive: 0.0785
17,ACCUCUUCCCGAAAGGAAATT against PTGER2,inactive: 0
18,CCUUGUUUCUUGAGUGUUUTT against TBXA2R,inactive: 0
19,CCCACUUGAUUACCCGUUATT against UBE2G2,inactive: -0.043
20,GCUGGUGACUAUUAUCGGATT against SLC24A4,inactive: 0.0358
21,CGACUAUUCUUGCAAGUGUTT against ADAM28,inactive: 0.211
22,GCUAUGAACUGGACGAAAATT against VTN,inactive: -0.435
23,AGUACUACAGGACAAUUGATT against KRT17,inactive: -0.0871
24,GCUUCAAUCUGAGACCAGUTT against ZNF79,inactive: -0.351
25,GGCAAUACAUGUAUCUAAATT against PAX4,inactive: 0.0811
26,GCACUGCUUAUGAAUCAGATT against ST6GALNAC1,inactive: -0.854
27,GCAUGUACAAGGGAUAUAATT against CD300E,inactive: 0.337

# Quoted from the listing:
# GGACGGAGAUUACAUCAAUTT against PTPN7 – median seed-adjusted z-score: inactive: -0.189
# GGCAAUACAUGUAUCUAAATT against PAX4 – median seed-adjusted z-score: inactive: 0.0811
# CCCACUUGAUUACCCGUUATT against UBE2G2 – median seed-adjusted z-score: inactive: -0.043
